According to publication PMC12758332:
These are yes or no findings as the source states them, for the method shown. Binding seen in cells or lysates may run through a third protein. Some entries that bind do so weakly or less than the wild type. For part of these data: Sequences can lack the tags named with a protein.

Chains of the proteins cited; added tags and fusions are not shown. Lines headed by an entry give the natural chain unless they say otherwise; changes in a name come on top. A line that says so, or that is headed by a name, gives the form on record, which may keep a tag or linker. Residues count along the entry.
UniProt P10275: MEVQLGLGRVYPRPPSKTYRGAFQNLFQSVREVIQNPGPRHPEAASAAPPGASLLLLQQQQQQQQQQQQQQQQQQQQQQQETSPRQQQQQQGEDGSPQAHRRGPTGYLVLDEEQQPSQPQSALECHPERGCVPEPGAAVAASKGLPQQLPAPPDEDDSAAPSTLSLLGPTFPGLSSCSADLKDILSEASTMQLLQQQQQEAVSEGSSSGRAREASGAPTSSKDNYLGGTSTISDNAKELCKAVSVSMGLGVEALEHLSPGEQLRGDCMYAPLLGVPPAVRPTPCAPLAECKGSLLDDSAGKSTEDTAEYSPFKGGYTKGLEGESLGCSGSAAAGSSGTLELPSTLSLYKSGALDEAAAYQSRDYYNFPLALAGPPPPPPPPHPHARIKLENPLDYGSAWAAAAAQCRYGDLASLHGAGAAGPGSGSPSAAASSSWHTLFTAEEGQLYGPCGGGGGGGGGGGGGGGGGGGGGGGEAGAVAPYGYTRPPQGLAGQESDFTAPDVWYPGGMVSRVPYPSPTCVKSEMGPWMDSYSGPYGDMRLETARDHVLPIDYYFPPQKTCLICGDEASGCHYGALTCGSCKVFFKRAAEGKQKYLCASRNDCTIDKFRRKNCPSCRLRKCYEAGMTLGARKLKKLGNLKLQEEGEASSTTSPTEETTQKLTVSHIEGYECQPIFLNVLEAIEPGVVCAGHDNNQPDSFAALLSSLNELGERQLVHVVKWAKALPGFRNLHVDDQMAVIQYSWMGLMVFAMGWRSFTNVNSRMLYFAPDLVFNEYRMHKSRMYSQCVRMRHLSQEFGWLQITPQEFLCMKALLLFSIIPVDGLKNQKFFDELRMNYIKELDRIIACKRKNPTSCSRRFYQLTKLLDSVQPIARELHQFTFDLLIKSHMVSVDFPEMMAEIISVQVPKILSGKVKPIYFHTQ
GST-tagged AR (1–333): residues 1-333 of P10275
UniProt Q09472: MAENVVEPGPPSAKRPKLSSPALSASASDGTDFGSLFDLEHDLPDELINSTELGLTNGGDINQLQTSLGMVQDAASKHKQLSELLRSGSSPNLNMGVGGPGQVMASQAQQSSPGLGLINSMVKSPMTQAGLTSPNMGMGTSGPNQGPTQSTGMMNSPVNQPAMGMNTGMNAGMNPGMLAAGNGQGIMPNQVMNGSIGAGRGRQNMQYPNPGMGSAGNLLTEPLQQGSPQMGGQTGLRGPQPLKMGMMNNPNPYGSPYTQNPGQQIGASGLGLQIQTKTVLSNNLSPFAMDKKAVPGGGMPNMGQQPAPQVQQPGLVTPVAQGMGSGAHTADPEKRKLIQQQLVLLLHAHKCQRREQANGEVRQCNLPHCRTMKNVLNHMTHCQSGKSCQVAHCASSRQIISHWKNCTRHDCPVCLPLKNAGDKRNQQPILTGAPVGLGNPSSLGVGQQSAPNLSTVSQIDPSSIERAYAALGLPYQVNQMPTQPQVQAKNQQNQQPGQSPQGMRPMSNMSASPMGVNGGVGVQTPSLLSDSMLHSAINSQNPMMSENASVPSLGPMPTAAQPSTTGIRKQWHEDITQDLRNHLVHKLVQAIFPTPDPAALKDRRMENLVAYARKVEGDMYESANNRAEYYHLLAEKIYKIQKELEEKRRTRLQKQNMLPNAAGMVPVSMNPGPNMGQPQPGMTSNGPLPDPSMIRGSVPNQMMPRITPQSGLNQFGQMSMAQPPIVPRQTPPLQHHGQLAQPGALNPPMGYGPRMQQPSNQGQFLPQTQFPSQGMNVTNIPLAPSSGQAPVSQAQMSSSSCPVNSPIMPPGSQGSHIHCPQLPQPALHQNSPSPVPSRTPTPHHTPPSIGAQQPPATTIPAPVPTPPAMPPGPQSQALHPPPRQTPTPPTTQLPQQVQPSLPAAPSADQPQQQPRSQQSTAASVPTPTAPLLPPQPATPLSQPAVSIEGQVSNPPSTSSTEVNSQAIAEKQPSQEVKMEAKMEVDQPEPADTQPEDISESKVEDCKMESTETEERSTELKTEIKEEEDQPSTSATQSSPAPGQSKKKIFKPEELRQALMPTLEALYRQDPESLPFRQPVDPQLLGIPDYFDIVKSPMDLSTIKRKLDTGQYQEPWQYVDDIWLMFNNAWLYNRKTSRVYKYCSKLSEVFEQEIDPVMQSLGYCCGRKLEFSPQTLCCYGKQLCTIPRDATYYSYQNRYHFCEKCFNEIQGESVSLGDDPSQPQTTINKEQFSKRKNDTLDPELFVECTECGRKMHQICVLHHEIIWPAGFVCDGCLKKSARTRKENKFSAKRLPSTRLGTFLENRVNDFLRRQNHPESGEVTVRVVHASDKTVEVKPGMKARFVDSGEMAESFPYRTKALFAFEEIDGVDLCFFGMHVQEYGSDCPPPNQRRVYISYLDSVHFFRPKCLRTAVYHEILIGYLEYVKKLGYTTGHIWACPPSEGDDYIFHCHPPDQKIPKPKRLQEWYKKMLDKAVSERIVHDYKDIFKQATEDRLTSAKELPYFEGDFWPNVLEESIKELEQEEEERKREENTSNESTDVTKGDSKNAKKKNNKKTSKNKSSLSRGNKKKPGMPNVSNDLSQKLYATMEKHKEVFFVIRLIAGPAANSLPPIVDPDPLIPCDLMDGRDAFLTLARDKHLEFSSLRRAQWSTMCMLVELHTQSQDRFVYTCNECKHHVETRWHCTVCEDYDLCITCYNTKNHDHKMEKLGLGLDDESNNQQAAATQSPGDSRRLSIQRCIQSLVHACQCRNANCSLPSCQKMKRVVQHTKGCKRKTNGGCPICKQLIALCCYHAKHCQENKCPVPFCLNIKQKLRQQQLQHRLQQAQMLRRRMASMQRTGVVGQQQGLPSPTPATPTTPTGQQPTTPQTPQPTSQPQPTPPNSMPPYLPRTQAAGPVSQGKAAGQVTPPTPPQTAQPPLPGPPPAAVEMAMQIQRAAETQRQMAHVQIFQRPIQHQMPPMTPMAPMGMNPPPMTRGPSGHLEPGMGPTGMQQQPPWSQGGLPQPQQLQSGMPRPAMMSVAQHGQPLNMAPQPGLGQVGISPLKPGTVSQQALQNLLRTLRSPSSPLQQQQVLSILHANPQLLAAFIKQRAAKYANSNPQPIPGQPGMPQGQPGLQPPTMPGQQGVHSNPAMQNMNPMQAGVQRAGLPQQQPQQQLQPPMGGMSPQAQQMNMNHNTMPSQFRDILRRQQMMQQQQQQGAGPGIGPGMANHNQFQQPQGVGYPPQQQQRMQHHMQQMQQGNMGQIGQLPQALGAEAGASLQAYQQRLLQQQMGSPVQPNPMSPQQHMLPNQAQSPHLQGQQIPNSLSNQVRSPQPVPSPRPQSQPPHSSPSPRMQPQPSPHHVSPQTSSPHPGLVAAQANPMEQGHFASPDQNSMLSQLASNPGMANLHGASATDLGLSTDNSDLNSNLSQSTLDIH
UniProt O14929: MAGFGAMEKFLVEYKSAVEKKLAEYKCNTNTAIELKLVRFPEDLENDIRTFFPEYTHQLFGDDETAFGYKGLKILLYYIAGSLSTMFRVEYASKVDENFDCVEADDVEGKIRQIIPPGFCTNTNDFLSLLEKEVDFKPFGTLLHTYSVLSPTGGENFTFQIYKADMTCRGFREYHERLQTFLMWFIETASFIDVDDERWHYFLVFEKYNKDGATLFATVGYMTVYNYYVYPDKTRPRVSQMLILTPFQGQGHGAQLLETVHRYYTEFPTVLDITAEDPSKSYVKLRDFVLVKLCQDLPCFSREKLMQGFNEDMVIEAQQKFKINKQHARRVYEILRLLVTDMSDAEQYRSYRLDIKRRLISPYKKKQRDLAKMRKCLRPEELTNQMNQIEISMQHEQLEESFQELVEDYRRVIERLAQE
UniProt Q8WYB5: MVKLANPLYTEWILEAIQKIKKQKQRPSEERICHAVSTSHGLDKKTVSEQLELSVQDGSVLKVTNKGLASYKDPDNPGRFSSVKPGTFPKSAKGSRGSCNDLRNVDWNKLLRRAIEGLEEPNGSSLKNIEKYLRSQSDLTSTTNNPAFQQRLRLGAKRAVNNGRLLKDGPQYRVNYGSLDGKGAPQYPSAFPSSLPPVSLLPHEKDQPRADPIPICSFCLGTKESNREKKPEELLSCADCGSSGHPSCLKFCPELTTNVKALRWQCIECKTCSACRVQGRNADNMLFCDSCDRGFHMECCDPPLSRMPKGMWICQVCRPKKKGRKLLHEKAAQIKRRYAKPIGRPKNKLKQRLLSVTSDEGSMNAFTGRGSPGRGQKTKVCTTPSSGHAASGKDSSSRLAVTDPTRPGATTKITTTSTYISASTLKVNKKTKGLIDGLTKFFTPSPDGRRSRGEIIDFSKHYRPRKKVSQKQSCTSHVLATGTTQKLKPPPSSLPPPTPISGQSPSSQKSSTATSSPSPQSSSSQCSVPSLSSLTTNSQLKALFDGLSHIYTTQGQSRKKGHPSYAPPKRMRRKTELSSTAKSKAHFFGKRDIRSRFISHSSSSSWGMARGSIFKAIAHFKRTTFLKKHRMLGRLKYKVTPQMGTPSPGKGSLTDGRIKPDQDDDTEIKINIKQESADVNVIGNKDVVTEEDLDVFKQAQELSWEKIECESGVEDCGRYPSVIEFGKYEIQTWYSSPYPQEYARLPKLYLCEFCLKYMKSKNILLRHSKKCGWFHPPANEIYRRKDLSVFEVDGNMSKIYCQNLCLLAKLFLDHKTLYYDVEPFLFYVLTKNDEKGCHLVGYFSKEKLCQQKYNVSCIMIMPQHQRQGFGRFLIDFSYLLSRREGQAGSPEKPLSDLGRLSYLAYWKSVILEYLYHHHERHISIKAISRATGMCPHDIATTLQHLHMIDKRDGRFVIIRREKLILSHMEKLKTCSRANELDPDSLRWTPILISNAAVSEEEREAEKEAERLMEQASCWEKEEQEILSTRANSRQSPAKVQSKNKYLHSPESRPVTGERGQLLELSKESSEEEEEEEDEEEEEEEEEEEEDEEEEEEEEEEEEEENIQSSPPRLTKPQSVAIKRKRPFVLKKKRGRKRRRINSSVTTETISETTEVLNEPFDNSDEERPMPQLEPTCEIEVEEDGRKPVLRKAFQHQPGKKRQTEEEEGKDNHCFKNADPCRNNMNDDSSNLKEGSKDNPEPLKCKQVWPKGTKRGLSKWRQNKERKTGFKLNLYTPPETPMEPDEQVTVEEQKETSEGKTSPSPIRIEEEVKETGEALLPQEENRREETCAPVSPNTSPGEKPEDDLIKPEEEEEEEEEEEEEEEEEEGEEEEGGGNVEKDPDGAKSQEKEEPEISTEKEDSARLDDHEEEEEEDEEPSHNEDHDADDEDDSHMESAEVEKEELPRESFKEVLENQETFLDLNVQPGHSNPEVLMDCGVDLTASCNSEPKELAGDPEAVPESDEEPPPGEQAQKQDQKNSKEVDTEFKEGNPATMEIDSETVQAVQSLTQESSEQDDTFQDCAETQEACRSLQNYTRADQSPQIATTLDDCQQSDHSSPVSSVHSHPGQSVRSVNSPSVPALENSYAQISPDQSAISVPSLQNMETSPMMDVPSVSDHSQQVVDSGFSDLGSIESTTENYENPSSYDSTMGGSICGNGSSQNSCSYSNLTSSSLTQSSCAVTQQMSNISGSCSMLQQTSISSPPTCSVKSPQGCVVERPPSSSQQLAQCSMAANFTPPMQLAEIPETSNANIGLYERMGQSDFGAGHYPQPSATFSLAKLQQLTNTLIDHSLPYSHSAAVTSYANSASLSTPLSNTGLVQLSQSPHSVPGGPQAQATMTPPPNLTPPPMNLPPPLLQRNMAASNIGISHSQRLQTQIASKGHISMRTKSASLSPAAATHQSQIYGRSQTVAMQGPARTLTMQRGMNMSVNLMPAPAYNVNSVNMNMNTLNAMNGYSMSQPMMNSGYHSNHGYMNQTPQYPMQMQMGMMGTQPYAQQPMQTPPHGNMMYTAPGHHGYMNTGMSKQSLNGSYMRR

Key:
[1] = target: T1, GST-tagged ZMIZ2 (392–527) (UniProt Q8NF64); test: pull-down; GST pull-down with GST-tagged truncated forms of ZMIZ2 (against AR) and of AR (against ZMIZ2); no methods given
T1 sequence: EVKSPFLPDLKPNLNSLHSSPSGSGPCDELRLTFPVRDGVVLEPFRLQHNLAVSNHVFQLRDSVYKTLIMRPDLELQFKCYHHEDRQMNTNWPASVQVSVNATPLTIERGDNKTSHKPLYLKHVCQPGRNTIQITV

[2] = target: T2, Zinc finger MIZ domain-containing protein 2 (ZMIZ2) (human (endogenous in LNCaP and 22RV1)) (UniProt Q8NF64); test: co-IP; IP of ZMIZ2 and blot for acetylases, in the presence or absence of DHT
T2 sequence: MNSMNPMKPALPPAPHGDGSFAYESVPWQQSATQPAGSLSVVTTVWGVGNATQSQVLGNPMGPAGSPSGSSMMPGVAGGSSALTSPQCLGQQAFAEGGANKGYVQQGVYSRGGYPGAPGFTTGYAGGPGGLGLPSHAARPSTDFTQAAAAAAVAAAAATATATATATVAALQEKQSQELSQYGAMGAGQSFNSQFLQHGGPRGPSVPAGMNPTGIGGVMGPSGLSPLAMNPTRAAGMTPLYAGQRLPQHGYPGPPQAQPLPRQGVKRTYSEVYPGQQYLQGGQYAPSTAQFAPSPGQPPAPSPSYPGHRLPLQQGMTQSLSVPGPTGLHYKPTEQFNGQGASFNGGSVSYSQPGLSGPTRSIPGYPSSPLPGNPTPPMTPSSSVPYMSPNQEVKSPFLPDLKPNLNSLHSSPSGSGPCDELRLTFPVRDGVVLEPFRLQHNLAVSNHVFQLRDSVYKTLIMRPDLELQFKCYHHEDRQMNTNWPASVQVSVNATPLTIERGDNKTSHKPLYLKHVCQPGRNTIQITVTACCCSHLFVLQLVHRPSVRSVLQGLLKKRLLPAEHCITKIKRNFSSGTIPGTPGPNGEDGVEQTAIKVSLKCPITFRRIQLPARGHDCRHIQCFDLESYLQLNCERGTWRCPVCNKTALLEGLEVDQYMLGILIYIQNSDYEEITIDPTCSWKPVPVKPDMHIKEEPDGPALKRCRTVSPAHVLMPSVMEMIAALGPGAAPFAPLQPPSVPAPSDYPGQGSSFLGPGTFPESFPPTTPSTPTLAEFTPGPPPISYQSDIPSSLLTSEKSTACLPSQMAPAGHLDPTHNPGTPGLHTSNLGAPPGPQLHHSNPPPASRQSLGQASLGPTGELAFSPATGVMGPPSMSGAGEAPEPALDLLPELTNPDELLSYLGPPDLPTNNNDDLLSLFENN

[3] = target: androgen receptor (AR) (human (endogenous in LNCaP and 22RV1)) (UniProt P10275); test: co-IP; LNCaP lysate, AR antibody 8 h at 4 °C, protein A/G agarose 4 h, five washes with lysis buffer, blot; for the acetylases with or without DHT and after ZMIZ2 silencing
[4] = target: androgen receptor (AR) (human (endogenous in LNCaP and 22RV1)) (UniProt P10275); test: as above; remark: listed apart in the source
[5] = target: androgen receptor (AR) (human (endogenous in LNCaP and 22RV1)) (UniProt P10275); test: co-IP; 22RV1 cells, endogenous proteins
GST-tagged AR (1–333) = GST-tagged AR (1–333) (UniProt P10275); test: pull-down; GST pull-down with GST-tagged truncated forms of ZMIZ2 (against AR) and of AR (against ZMIZ2); no methods given

AR (partner of the GST-ZMIZ2 truncated forms in the pull-down) (from UniProt P10275 1-920) (receptor)
binding [1]: binds

EP300 (from UniProt Q09472 1-2414) (enzyme)
binding [2]: binds

HAT1 (from UniProt O14929 1-419) (enzyme)
binding [2]: binds
binding [3]: binds

KAT6B (from UniProt Q8WYB5 1-2073) (enzyme)
binding [2]: binds
binding [3]: binds

B1: Zinc finger MIZ domain-containing protein 2 (ZMIZ2) (protein, UniProt Q8NF64 1-920)
chain: T2 sequence
binding [4]: binds
binding [5]: binds

B2: ZMIZ2 (partner of the GST-AR truncated forms in the pull-down) (protein, UniProt Q8NF64 1-920)
chain: T2 sequence
binding (GST-tagged AR (1–333)): binds
